PMC9106305
No constants are given. Whether binding was seen depends on the method and setting. In cells and extracts the contact can be indirect. Some binding calls cover weakened binding; strength is not graded here.

Protein sequences, listed by entry. Tags and fused reporters are not part of them.
UniProt P40763: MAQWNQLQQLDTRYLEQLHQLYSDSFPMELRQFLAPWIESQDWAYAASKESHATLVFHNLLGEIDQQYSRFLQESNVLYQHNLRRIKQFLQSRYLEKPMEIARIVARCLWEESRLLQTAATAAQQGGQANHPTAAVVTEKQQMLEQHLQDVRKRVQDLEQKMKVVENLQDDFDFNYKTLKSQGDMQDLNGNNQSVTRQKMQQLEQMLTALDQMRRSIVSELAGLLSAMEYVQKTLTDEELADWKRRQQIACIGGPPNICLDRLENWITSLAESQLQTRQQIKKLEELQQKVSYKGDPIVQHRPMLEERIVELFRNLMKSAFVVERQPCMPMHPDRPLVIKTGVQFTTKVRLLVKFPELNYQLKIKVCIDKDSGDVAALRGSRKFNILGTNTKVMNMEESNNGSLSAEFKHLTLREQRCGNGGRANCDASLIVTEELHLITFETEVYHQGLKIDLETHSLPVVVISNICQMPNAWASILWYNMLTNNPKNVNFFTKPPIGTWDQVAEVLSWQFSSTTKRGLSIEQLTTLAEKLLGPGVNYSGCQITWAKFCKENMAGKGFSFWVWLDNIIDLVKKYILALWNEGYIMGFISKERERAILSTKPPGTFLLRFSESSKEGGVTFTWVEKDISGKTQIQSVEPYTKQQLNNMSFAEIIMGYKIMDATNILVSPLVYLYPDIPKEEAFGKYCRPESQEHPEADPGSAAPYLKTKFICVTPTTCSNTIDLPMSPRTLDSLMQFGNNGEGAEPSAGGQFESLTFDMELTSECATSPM

Molecular target: T1, BLCAP (human (endogenous in N33 and N9 primary GBM cells)) (UniProt P62952)
T1 sequence: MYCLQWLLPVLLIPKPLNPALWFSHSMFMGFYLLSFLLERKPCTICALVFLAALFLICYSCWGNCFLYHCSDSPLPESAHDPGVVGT
Assay: co-IP; cells lysed in IP lysis buffer; 5 ug anti-BLCAP (or anti-STAT3) antibody and 40 ul protein-A/G agarose beads with total lysates of N33 and N9 cells, 4°C overnight; immunoblot for BLCAP, STAT3 and p-STAT3; groups with PRADX overexpression, EZH2 or BLCAP knockdown

binding: binds
Substance: STAT3 (from UniProt P40763 1-770)
